According to the supplement of paper PMC4635364:
Counter-ions that a name gives are not always drawn. The list shows a part of the results. Repeats in this data set agree poorly, so a single value says little.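 Cells: ReNCell VM human fetal ventral-midbrain neural progenitors, differentiated mitogen-free. Blinded raters compared doublecortin-stained (early neurons) or tyrosine hydroxylase-stained (dopaminergic neurons) images with untreated wells, where 0 means no change. After repeats and both raters were averaged, compounds scoring 2 or above became hits for retesting.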

Experiments:
ReNCell VM [1] = experiment: neuronal differentiation score (DCX+ cell fraction vs untreated, manual image score) (score (-3 to 3)); higher = more neuronal differentiation; conditions: 2 uM, 2 weeks
ReNCell VM [2] = experiment: dopaminergic neuron differentiation score (TH+ cell fraction vs untreated, manual image score) (score (0 to 3)); higher = more TH+ dopaminergic neuron differentiation; conditions: 2 uM, 4 weeks, BDNF 10 ng/ml + GDNF 10 ng/ml

| Structure (SMILES) | neuronal differentiation score (ReNCell VM [1]; library: LOPAC) | neuronal differentiation score (ReNCell VM [1]; library: Tocriscreen) | dopaminergic neuron differentiation score (ReNCell VM [2]; library: LOPAC) | dopaminergic neuron differentiation score (ReNCell VM [2]; library: Tocriscreen) | neuronal differentiation score (ReNCell VM [1]; library: Prestwick) | dopaminergic neuron differentiation score (ReNCell VM [2]; library: Prestwick) | neuronal differentiation score (ReNCell VM [1]; library: Phytochemical) | dopaminergic neuron differentiation score (ReNCell VM [2]; library: Phytochemical) |
| --- | --- | --- | --- | --- | --- | --- | --- | --- |
| O=C(CCCN1CCC2(CC1)C(=O)NCN2c1ccccc1)c1ccc(F)cc1 [Spiperone hydrochloride] | inactive: 0 | inactive: 0 | inactive: 0 | inactive: 0 | – | – | – | – |
| CC[C@@H](CO)NC(=O)[C@@H]1C=C2c3cccc4c3c(cn4C)C[C@H]2N(C)C1 [Methysergide maleate] | inactive: 0 | inactive: 0 | inactive: 0 | inactive: 0 | – | – | – | – |
| C=CCN1CC[C@]23c4c5ccc(O)c4O[C@H]2C(=O)CC[C@@]3(O)[C@H]1C5 [Naloxone hydrochloride] | inactive: 1 | inactive: 0 | inactive: 0 | inactive: 0 | inactive: 0 | inactive: 0 | – | – |
| S=C(NC1CCCCC1)N1CCC(c2cnc[nH]2)CC1 [Thioperamide maleate] | inactive: 0 | – | inactive: 0 | – | inactive: 0 | inactive: 0 | – | – |
| COc1ccc(CNC(=O)/C=C/c2ccc3[nH]cc(CCN(C)C)c3c2)cc1 | inactive: 0 | inactive: 0 | inactive: 0 | inactive: 0 | – | – | – | – |
| C=C(C)[C@H]1Cc2c(ccc3c2O[C@@H]2COc4cc(OC)c(OC)cc4[C@@H]2C3=O)O1 [Rotenone] | inactive: 0 | – | inactive: 0 | – | – | – | inactive: 0 | inactive: 0 |
| C=C(C)[C@H]1CN[C@H](C(=O)O)[C@H]1CC(=O)O [Kainic acid] | inactive: 0 | inactive: 0 | inactive: 0 | inactive: 0 | – | – | inactive: 0 | inactive: 0 |
| COc1cc2c(c(OC)c1OC)-c1ccc(OC)c(=O)cc1[C@@H](NC(C)=O)CC2 [Colchicine] | inactive: -1 | inactive: 0 | inactive: 0 | inactive: 0 | inactive: 0 | inactive: 0 | inactive: 0 | inactive: 0 |
| N.N.[Cl][Pt][Cl] [Cisplatin] | inactive: 0 | inactive: 0 | inactive: 0 | inactive: 0 | – | – | – | – |
| COc1ccc(C(=O)N2CCCC2=O)cc1 [Aniracetam] | inactive: 0 | inactive: 0 | inactive: 0 | inactive: 0 | inactive: 0 | inactive: 0 | – | – |
| Oc1ccc2c3c1O[C@H]1c4[nH]c5ccccc5c4C[C@@]4(O)[C@@H](C2)N(CC2CC2)CC[C@]314 [Naltrindole hydrochloride] | active: 2 | inactive: 0 | inactive: 1 | active: 2 | – | – | – | – |
| O=c1[nH]c2ccccc2n1C1CCN(CCCC(c2ccc(F)cc2)c2ccc(F)cc2)CC1 [Pimozide] | inactive: 0 | inactive: 0 | inactive: 0 | inactive: 0 | inactive: 0 | inactive: 0 | – | – |
| c1ccc2c(c1)OCC(C1=NCCN1)O2 (stereo not given) [Idazoxan hydrochloride] | inactive: 0 | inactive: 0 | inactive: 0 | inactive: 0 | inactive: 0 | inactive: 0 | – | – |
| CCCCc1ccc(C(=O)O)nc1 [Fusaric acid] | inactive: 0 | – | inactive: 0 | – | – | – | inactive: 0 | inactive: 0 |
| CN1C(=O)CCS(=O)(=O)C1c1ccc(Cl)cc1 (stereo not given) [Chlormezanone] | inactive: 0 | inactive: 0 | inactive: 0 | inactive: 0 | inactive: 0 | inactive: 0 | – | – |
| O=c1[nH]c2ccccc2n1CCCN1CCC(n2c(=O)[nH]c3cc(Cl)ccc32)CC1 [Domperidone] | inactive: 0 | inactive: 0 | inactive: 0 | inactive: 0 | inactive: 0 | inactive: 0 | – | – |
| CN(C)C(=O)Oc1cccc([N+](C)(C)C)c1 [Neostigmine bromide] | inactive: 0 | – | inactive: 0 | – | inactive: 0 | inactive: 0 | inactive: 0 | inactive: 0 |
| C[C@@]12C(=O)OC(=O)[C@]1(C)[C@H]1CC[C@@H]2O1 [Cantharidin] | inactive: 0 | inactive: 0 | inactive: 0 | inactive: 0 | – | – | inactive: 0 | inactive: 0 |
| C[C@@H]1CC[C@H]2[C@@H](C)C(=O)O[C@@H]3O[C@@]4(C)CC[C@@H]1[C@]32OO4 [Artemisinin] | – | inactive: 0 | – | inactive: 0 | inactive: 0 | inactive: 1 | inactive: 0 | inactive: 0 |
| N[C@@H]1C[C@H]1c1ccccc1 [Tranylcypromine hydrochloride] | inactive: -2 | inactive: -1 | inactive: 0 | inactive: 0 | inactive: -1 | inactive: 0 | – | – |
| C/C(O)=C(\C#N)C(=O)Nc1cc(Br)ccc1Br | inactive: 0 | inactive: 0 | inactive: 0 | inactive: 0 | – | – | – | – |

Just dopaminergic neuron differentiation score (ReNCell VM [2]; library: Phytochemical), dopaminergic neuron differentiation score (ReNCell VM [2]; library: Tocriscreen) and dopaminergic neuron differentiation score (ReNCell VM [2]; library: Prestwick), for two of the compounds above:
Structure (SMILES),dopaminergic neuron differentiation score (ReNCell VM [2]; library: Phytochemical),dopaminergic neuron differentiation score (ReNCell VM [2]; library: Tocriscreen),dopaminergic neuron differentiation score (ReNCell VM [2]; library: Prestwick)
O=C(CCCN1CCC2(CC1)C(=O)NCN2c1ccccc1)c1ccc(F)cc1 [Spiperone hydrochloride],–,inactive: 0,–
S=C(NC1CCCCC1)N1CCC(c2cnc[nH]2)CC1 [Thioperamide maleate],–,–,inactive: 0
